The target in test [1] is T1, HA-FLAG-tagged ZC3H15 (Zinc finger CCCH domain-containing protein 15) (human) (UniProt Q8WU90).
T1 sequence: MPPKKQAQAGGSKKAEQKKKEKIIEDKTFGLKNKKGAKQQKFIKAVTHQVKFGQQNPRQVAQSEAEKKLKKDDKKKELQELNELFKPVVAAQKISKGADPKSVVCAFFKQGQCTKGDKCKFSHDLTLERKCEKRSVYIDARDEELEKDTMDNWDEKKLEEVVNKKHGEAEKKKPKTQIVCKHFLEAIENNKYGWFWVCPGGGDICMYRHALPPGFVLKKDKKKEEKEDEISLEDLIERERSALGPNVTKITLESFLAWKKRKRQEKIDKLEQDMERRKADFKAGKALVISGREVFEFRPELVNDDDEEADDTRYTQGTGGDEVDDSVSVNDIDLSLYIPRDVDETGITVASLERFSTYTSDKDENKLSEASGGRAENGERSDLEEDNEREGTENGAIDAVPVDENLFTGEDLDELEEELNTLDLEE
The test is described as follows: IP-TRAP (immunoprecipitation, then telomerase activity by q-TRAP); cell lysates incubated with anti-FLAG agarose beads at 4 °C for 4 h; eluates used for q-TRAP; for FLAG-TPP1 in HEK293T with GST-GFP or GST-ZC3H15 co-expressed, 48 h.

The chains behind the UniProt entries cited, without tags or fusion partners.
UniProt O14746: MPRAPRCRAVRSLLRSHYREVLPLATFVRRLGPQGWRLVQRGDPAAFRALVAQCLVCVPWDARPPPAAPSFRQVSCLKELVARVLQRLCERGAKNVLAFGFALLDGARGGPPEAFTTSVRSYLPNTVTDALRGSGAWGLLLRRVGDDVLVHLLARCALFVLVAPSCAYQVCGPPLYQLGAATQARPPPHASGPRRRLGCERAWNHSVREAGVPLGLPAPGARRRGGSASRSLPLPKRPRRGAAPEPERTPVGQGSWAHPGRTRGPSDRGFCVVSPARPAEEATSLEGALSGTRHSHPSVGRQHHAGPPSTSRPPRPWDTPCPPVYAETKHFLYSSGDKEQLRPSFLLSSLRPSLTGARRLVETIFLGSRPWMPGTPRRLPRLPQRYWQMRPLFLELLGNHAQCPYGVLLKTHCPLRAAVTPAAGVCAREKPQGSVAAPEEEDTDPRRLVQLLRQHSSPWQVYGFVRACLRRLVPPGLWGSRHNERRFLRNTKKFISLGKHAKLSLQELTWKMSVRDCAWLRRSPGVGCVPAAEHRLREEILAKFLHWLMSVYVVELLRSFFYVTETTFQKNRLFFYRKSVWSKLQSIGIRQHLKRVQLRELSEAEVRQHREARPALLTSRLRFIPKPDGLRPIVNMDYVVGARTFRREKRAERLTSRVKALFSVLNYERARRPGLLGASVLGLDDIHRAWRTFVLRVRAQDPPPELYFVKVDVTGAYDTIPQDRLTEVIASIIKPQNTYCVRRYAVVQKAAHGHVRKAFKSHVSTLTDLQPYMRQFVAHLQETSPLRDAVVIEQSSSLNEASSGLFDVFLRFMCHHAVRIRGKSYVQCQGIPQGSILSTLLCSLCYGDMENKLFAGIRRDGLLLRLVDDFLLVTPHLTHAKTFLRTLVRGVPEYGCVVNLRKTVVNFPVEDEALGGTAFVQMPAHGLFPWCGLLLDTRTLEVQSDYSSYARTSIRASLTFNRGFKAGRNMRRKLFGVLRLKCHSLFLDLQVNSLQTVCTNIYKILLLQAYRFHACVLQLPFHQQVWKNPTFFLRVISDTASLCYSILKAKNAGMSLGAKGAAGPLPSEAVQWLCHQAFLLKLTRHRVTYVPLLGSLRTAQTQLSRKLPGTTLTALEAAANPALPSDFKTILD

Test [2] concerns the target T2, GST-tagged ZC3H15 full length (human), Q8WU90.
T2 chain: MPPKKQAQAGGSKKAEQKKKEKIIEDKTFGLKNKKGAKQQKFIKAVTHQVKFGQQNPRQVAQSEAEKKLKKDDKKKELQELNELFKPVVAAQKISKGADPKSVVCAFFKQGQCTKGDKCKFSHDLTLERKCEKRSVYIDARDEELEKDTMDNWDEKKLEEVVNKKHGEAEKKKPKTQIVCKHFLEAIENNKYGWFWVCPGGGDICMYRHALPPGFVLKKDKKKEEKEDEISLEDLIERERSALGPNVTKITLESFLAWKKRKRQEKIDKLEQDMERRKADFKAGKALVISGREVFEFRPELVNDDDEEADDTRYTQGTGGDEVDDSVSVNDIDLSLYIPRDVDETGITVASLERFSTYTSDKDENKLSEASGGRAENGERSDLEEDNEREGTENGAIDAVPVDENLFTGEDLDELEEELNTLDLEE
The test is described as follows: pull-down; GST pull-down from HEK293T cells co-expressing a FLAG-tagged and a GST-tagged protein; NETN lysis buffer, beads 4 °C 2 to 4 h, three washes; western blot. The note with it: remark: other sources report otherwise.

Results are given in words; binding and its absence hold for the method and conditions named. For some assays here: Binding seen in cells or lysates may run through a third protein. Some results given as binding are weak or reduced against the parent protein; the word gives no strength. Where a sequence is shown, tags or fusion partners need not be part of it.

On to “telomerase (from UniProt O14746 1-1132) (complex)”, for which the binding result in test [1] was “binds”.

B1: HA-FLAG-tagged ZC3H15 (Zinc finger CCCH domain-containing protein 15), Q8WU90 1-426 (protein)
chain: MPPKKQAQAGGSKKAEQKKKEKIIEDKTFGLKNKKGAKQQKFIKAVTHQVKFGQQNPRQVAQSEAEKKLKKDDKKKELQELNELFKPVVAAQKISKGADPKSVVCAFFKQGQCTKGDKCKFSHDLTLERKCEKRSVYIDARDEELEKDTMDNWDEKKLEEVVNKKHGEAEKKKPKTQIVCKHFLEAIENNKYGWFWVCPGGGDICMYRHALPPGFVLKKDKKKEEKEDEISLEDLIERERSALGPNVTKITLESFLAWKKRKRQEKIDKLEQDMERRKADFKAGKALVISGREVFEFRPELVNDDDEEADDTRYTQGTGGDEVDDSVSVNDIDLSLYIPRDVDETGITVASLERFSTYTSDKDENKLSEASGGRAENGERSDLEEDNEREGTENGAIDAVPVDENLFTGEDLDELEEELNTLDLEE
Consider B1, for which the binding entry in test [2] is listed as “binds”.

Values taken from PMC12285200.
